{"sequences": {"note": "By UniProt entry, the sequences of proteins in these tests, tags left out.", "UniProt Q9H4E5": "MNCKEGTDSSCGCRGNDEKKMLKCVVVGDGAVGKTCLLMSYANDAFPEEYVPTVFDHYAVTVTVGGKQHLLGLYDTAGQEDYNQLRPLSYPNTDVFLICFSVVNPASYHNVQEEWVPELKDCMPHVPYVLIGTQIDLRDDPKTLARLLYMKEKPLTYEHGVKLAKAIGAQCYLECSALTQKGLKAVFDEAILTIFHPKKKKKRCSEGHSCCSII", "UniProt P52565": "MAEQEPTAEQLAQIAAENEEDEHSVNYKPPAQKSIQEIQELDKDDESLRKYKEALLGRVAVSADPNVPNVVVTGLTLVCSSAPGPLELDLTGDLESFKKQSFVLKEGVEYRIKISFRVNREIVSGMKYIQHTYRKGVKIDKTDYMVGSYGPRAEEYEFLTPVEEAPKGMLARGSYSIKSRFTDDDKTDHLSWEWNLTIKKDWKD"}, "source": "paper PMC8622166", "target": "TCL (UniProt Q9H4E5)", "experiment": "stopped-flow fluorimetry; association (kobs) at one concentration: 2 µM GDI mixed with 0.2 µM mdGDP-bound RHO GTPase; 25 °C, 30 mM Tris/HCl pH 7.5, 10 mM K2HPO4/KH2PO4 pH 7.5, 5 mM MgCl2, 3 mM DTT; both purified", "note": "No constants are given. Whether binding was seen depends on the method and setting.", "data": [{"substance": "GDI1 (RHOGDI1), wild type (from UniProt P52565 1-204)", "values": [{"measurement": "binding", "result": "no binding (tested: 2 µM GDI, 0.2 µM mdGDP-bound GTPase)"}]}]}
